Data source: PubChem BioAssay AID504784 (Drosophila RNAi Screening Center, 2011)
The deposit covers about 17,000 reagents; this is a random part of those with a known target gene and a result. 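Each column is one replicate's B-score; the combined score over replicates was not deposited, so single values may mislead.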 The numbers tell different reagents against one gene apart. Not all columns of the deposit are shown.

Aim: 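Fly genes whose silencing alters how much lipid cells keep in droplets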 (primary screen)
System: Drosophila Kc167 embryonic cells
Reagent: long dsRNA against Drosophila genes, about 250 ng dsRNA per well
Time to read-out: 4 days
Challenge: cells fed 400 µM oleic acid bound to BSA
Measured: 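Cells imaged and segmented; ratio of lipid droplet area to nuclear area, log-transformed, then normalised as a B-score over the screen; higher means more stored lipid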
Reading the numbers: droplet/nuclear area B-score: higher = more stored lipid (overstorage)

CG31556 (retired record) #1: droplet/nuclear area B-score, replicate 1 = -0.198
CG31556 (retired record) #2: droplet/nuclear area B-score, replicate 1 = 1.42
wol: droplet/nuclear area B-score, replicate 1 = -0.245
CG11141: droplet/nuclear area B-score, replicate 1 = 0.81
CG42258 #1: droplet/nuclear area B-score, replicate 1 = -1.9
CG42258 #2: droplet/nuclear area B-score, replicate 1 = 1.34
CG42258 #3: droplet/nuclear area B-score, replicate 1 = 1.35
MED14: droplet/nuclear area B-score, replicate 1 = -0.869
RpS10b: droplet/nuclear area B-score, replicate 1 = -0.152
CG12012: droplet/nuclear area B-score, replicate 1 = -0.163
Cyp4p3: droplet/nuclear area B-score, replicate 1 = -0.703
CG15468: droplet/nuclear area B-score, replicate 1 = -0.482
salt: droplet/nuclear area B-score, replicate 1 = -0.196
Dhpr: droplet/nuclear area B-score, replicate 1 = -0.591
CG32075: droplet/nuclear area B-score, replicate 1 = -1.74
CG17267: droplet/nuclear area B-score, replicate 1 = -0.106
Alg1: droplet/nuclear area B-score, replicate 1 = 0.182

Reformatted: results already given
Target gene | reagent | droplet/nuclear area B-score, replicate 1
CG42258 | 2 | 1.34
CG42258 | 3 | 1.35
MED14 | 1 | -0.869
RpS10b | 1 | -0.152
CG12012 | 1 | -0.163
Cyp4p3 | 1 | -0.703
CG15468 | 1 | -0.482

The results go on.
Edg78E: droplet/nuclear area B-score, replicate 1 = 0.65
CG31121 #1: droplet/nuclear area B-score, replicate 1 = -0.54
CG31121 #2: droplet/nuclear area B-score, replicate 1 = 1.91
CG32984: droplet/nuclear area B-score, replicate 1 = 1.68
CG13492: droplet/nuclear area B-score, replicate 1 = 0.118
ATPsyngamma: droplet/nuclear area B-score, replicate 1 = 1.79
TH1: droplet/nuclear area B-score, replicate 1 = -0.00895
CG32369 #1: droplet/nuclear area B-score, replicate 1 = -1.83
CG32369 #2: droplet/nuclear area B-score, replicate 1 = -1.76
CG17105: droplet/nuclear area B-score, replicate 1 = -0.854
CG33476: droplet/nuclear area B-score, replicate 1 = 1.71
Mgat4a #1: droplet/nuclear area B-score, replicate 1 = 2.38
Mgat4a #2: droplet/nuclear area B-score, replicate 1 = -0.0217
CG5687: droplet/nuclear area B-score, replicate 1 = -0.316
hoe1 #1: droplet/nuclear area B-score, replicate 1 = 0.223
hoe1 #2: droplet/nuclear area B-score, replicate 1 = 1.01
hoe1 #3: droplet/nuclear area B-score, replicate 1 = -0.0155
nAChRbeta2: droplet/nuclear area B-score, replicate 1 = -1.89
CG12035: droplet/nuclear area B-score, replicate 1 = 0.161
Np #1: droplet/nuclear area B-score, replicate 1 = -2.3
Np #2: droplet/nuclear area B-score, replicate 1 = -2.4
Np #3: droplet/nuclear area B-score, replicate 1 = -6.14
CG13575 #1: droplet/nuclear area B-score, replicate 1 = -0.156
CG13575 #2: droplet/nuclear area B-score, replicate 1 = -0.648
Mur29B #1: droplet/nuclear area B-score, replicate 1 = 1
Mur29B #2: droplet/nuclear area B-score, replicate 1 = 0.204
cutlet: droplet/nuclear area B-score, replicate 1 = 0.574
CG44251: droplet/nuclear area B-score, replicate 1 = -0.0315
dtr: droplet/nuclear area B-score, replicate 1 = 2.47
CG14406: droplet/nuclear area B-score, replicate 1 = 1.58
CG11842: droplet/nuclear area B-score, replicate 1 = -0.169
Spred: droplet/nuclear area B-score, replicate 1 = -1.03
CG1827: droplet/nuclear area B-score, replicate 1 = 0.698
RpS16: droplet/nuclear area B-score, replicate 1 = 3.42
